From article PMC7998926 (Microorganisms, 2021)
Read-outs that look alike come from different tables or passages of the source.

Legend:
[1] = tested on: EBOV; experiment: microbe, parasite or virus in culture; assay type: cell-based, Ebola virus; settings: Zaire ebolavirus, read-out: IC50 (average) (μM)
[2] = tested on: EBOV; settings: read-out: IC50 (HepG2); cited from earlier work
[3] = tested on: EBOV/Mak; settings: read-out: IC50 (Huh7); cited from earlier work

| SMILES | IC50 [1] | IC50 [2] | IC50 [3] |
| --- | --- | --- | --- |
| O=C1CCc2ccc(OCCCCN3CCN(c4cccc(Cl)c4Cl)CC3)cc2N1 [Aripiprazole] | 5.78 µM | 3760 nM | 7800 nM |
| CCN(CC)CCOc1ccc(C(=C(Cl)c2ccccc2)c2ccccc2)cc1 [Clomiphene] | 1.36 µM | 760 nM | 1960 nM |
